This is an account of results in PubChem BioAssay AID493014 (National Center for Advancing Translational Sciences (NCATS), 2011).

SMILES strings stand for the structures. This is one part of the list. These are further read-outs of the screen, such as a control signal, another cell line or another target. No call is given for them. Compounds called inactive in the main read-out are mostly missing here. Potencies come from curve fits of mixed quality, noted in brackets.

The assay in a line: qHTS Assay to Find Inhibitors of Chronic Active B-Cell Receptor Signaling. The note with it: ABC-DLBCL IkBa-CBG/CBR reporter, luminescence ratio (green luciferase fused to IkBa over red control in TMD8 lymphoma cells), 4 h. In a few lines: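 Compounds up to 46 uM were incubated four hours with TMD8 cells whose green CBG68 luciferase is fused to IkappaBalpha; red CBR luminescence normalised the signal, and concentration-effect curves were fitted to fusion, red and ratio data.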
On the technique in general: Quantitative high-throughput screening tests each substance at several concentrations.

[1] abbreviates: measured here: CBR red luminescence, cell number.
Setting [2] is: measured here: IkBa-CBG green luminescence.

As usually defined, the AC50 is the concentration giving half of the maximal activity seen. `NC(=O)c1ccccc1Nc1nc2nc3ccccc3c(=O)n2cc1Br`: under setting [1], the concentration at half-maximal activity (AC50) is 7.94 µM [falling, partial curve, poor fit].

In the case of `NNC(=O)CCN1CCN(C(c2ccccc2)c2ccccc2)CC1`, the AC50 under setting [1] was 5.62 µM [rising, single point]. Turning to `c1ccc(COc2ccc(Nc3ncnc4nc[nH]c34)cc2)cc1`, under setting [1], the concentration at half-maximal activity (AC50) is 5.17 µM [rising, full curve, poor fit]. The same measure, in the same setting: in the case of `CCCn1c(=O)c2ccccc2n2c(SCC(=O)c3ccccc3)nnc12` it was 20.6 µM [rising, partial curve, poor fit]. Still for that read-out and setting: in the case of `CC(=O)Nc1c(O)c2ccccc2[nH]c1=O` it was 3.16 µM [rising, partial curve, poor fit]; in that of `O=C(Cn1c(=O)sc2ccccc21)NCc1ccco1`, 2.82 µM [rising, partial curve]; in that of `Cc1cnn(-c2nc(-c3cccs3)cc(C(F)(F)F)n2)c1`, 0.366 µM [falling, partial curve, poor fit].

As to `COc1ccc(SCC(=O)c2cc(C)c(OC(=S)N(C)C)c(C)c2)cc1`, the half-maximal activity concentration (AC50) under setting [1] was 32.6 µM [falling, single point]. Same read-out and setting: in the case of `Cc1onc(-c2ccccc2)c1C(=O)NCCc1ccc(Cl)cc1` it was 0.708 µM [rising, full curve, poor fit].

For the compound `NC(=O)C(=O)N/N=C/c1c2ccccc2cc2ccccc12`, the concentration at half-maximal activity (AC50) under setting [1] was 15.8 µM [falling, partial curve, poor fit]. Turning to `CCCC(=O)Nc1ccc(C(=O)N/N=C/c2cccnc2)cc1`, the AC50 is 29.1 µM [rising, single point] under setting [1] and 32.6 µM [falling, partial curve, poor fit] under setting [2].

For `COc1ccc(CNc2nc3nc(C)c(Cl)c(=O)n3[nH]2)cc1OC`, under setting [1], the concentration at half-maximal activity (AC50) was 13 µM [falling, partial curve, poor fit]. Still for that read-out and setting: the same measure for `Cc1sc2nc(CN(C(=O)NC3CCCCC3)C3CCCC3)[nH]c(=O)c2c1C`: 23.1 µM [rising, single point]; for `Cc1cn(C)c(CC(=O)N2CCN(c3cccc(C(F)(F)F)c3)CC2)c1C(=O)O`: 35.5 µM [falling, single point]. Turning to `CCCCn1c(SCc2ccccn2)nc2c1c(=O)n(C)c(=O)n2C`, the AC50 under setting [2] is 1.16 µM [rising, full curve, poor fit]. With `CCOc1ccc2c(c1)c(N=Nc1cccc(C(=O)O)c1)c(O)n2C`, under setting [1], the AC50 was 0.092 µM [falling, full curve]. The same measure, in the same setting: in the case of `Cc1cc(/C=C(\C#N)C(=O)NC2CCCCCC2)c(C)n1C` it was 0.058 µM [falling, full curve]; in that of `O=C(Nc1ccccc1)c1cccc(C(F)(F)F)c1`, 0.731 µM [rising, full curve, poor fit]; in that of `CCCCN(C(=O)C1CCN(C(=O)c2ccccc2C)CC1)c1c(N)n(CCC)c(=O)[nH]c1=O`, 23.1 µM [falling, single point]. The same measure, in the same setting: the same measure for `COc1ccc(Nc2c3c(nc4ccccc24)CCC3)c(OC)c1`: 2 µM [falling, partial curve]. On to `O=C(Cc1c[nH]c2ccccc12)NNC(=O)c1ccccc1`, for which, under setting [1], the AC50 is 29.1 µM [rising, single point]. On the same count and under the same terms, the same measure for `O=C(O)Cn1c(SCc2ccccc2)nc2ccccc21`: 29.1 µM [falling, single point]; for `COc1ccc(/C=N/O)cc1COc1ccc(NC(C)=O)cc1`: 14.6 µM [rising, partial curve, poor fit]. Still for that read-out and setting: the same measure for `NC(=O)CCCc1nc(-c2ccccc2Cl)no1`: 7.94 µM [rising, partial curve, poor fit]. Turning to `COc1ccc(N=Cc2cc3c(cc2O)OC(N)=C(C#N)C3c2ccccc2)cc1` (configuration not stated), the AC50 was 7.31 µM [falling, partial curve] under setting [1] and 25.9 µM [rising, partial curve, poor fit] under setting [2]. Consider `CC(=O)c1c(Nc2ccccc2)sc(C(=O)c2ccccc2)c1C`, for which the AC50 under setting [1] is 6.51 µM [rising, single point]. The same measure, in the same setting: in the case of `Cc1ccc2[nH]c(C(=O)N/N=C/c3ccccc3O)c(C)c2c1` it was 0.708 µM [falling, full curve, poor fit]; in that of `Cc1ccc(C(C)C)c(OC(=O)/C=C/c2ccccc2)c1`, 23.1 µM [rising, partial curve]; in that of `CN(CC(=O)Nc1ccc(Cl)c(C(F)(F)F)c1)C(=O)c1cn2ccccc2n1`, 0.731 µM [rising, full curve]. The same measure, in the same setting: in the case of `COc1cc(/C=N/Nc2nc3ccccc3[nH]2)cc(Br)c1OCC(=O)N(C)C` it was 20 µM [falling, partial curve, poor fit]; in that of `COc1cccc(CN(C(=O)COc2ccccc2[N+](=O)[O-])C2CCS(=O)(=O)C2)c1` (configuration not stated), 15.8 µM [falling, partial curve, poor fit]; in that of `CN=c1scc(C)n1/N=C/c1ccc(O)c(O)c1O`, 29.1 µM [rising, single point]. Turning to `O=C(Nc1ccc(Br)cc1)N1CCc2ccccc2C1`, the half-maximal activity concentration (AC50) under setting [1] was 22.4 µM [falling, single point]. Same read-out and setting: the same measure for `COc1ccccc1C(=O)Nc1cccnc1`: 20 µM [falling, partial curve, poor fit]. For the compound `COc1ccc(/C=N/OCc2ccc(Br)cc2)c(OC)c1`, the concentration at half-maximal activity (AC50) under setting [1] is 4.47 µM [rising, full curve, poor fit]. As to `C=CCn1c(SCC(=O)N2CCOCC2)nnc1C(C)NC(=O)c1ccccc1` (configuration not stated), the concentration at half-maximal activity (AC50) under setting [1] was 14.1 µM [rising, partial curve, poor fit]. On the same count and under the same terms, the same measure for `Cc1nc2ccccc2cc1C(=O)NCc1ccc(F)cc1`: 10 µM [rising, partial curve, poor fit]; for `Cc1ccccc1C(=O)Oc1ccc(-c2csnn2)cc1`: 0.794 µM [rising, full curve, poor fit]; for `CC1Cc2nc(SCC(=O)Nc3ccc(F)cc3F)n(C)c(=O)c2S1` (configuration not stated): 22.4 µM [falling, partial curve, poor fit]. The same measure, in the same setting: in the case of `Cc1ccc(S(=O)(=O)Nc2ccncc2)c(C)c1N(C)S(=O)(=O)c1ccc(Cl)cc1` it was 29.1 µM [rising, single point]; in that of `CCc1ccc(OCC(=O)Nc2nnc(-c3ccco3)s2)cc1`, 10 µM [rising, partial curve, poor fit]; in that of `CN(C)c1ccc(N=Nc2cccc(F)c2)cc1`, 0.224 µM [rising, full curve, poor fit]. With `O=C(Nc1ccc(Cn2cccn2)cc1)c1ccc(COc2ccccc2Br)cc1`, the half-maximal activity concentration (AC50) under setting [1] was 20 µM [falling, single point].

Regarding `COc1ccc(Nc2nc(-c3ccccc3)nc3ccccc23)c(OC)c1`, the AC50 under setting [1] was 3.16 µM [rising, full curve, poor fit]. The same measure, in the same setting: the same measure for `CC(C)c1ccc(C(O)Cc2nc3ccccc3n2C)cc1` (configuration not stated): 10 µM [rising, partial curve]; for `C=CCn1c(CNc2ccc(C)cc2)nnc1SCC(=O)N/N=C/c1ccc(O)cc1O`: 22.4 µM [falling, single point]; for `Cc1ccc(-n2c(=S)[nH]c3c(oc4ccccc43)c2=O)cc1`: 23.1 µM [falling, single point]. Still for that read-out and setting: the same measure for `CCOC(=O)C(C(=O)OCC)C1N=C(N)N=C2Oc3ccccc3N21` (configuration not stated): 1.03 µM [falling, full curve, poor fit].

Consider `O=C(Nc1ccc2oc(=O)ccc2c1)c1cc2ccccc2o1`, for which the AC50 under setting [1] was 7.31 µM [falling, partial curve, poor fit]. Same read-out and setting: the same measure for `CCOC(=O)c1c(C)[nH]c(C)c1C(=O)CN1C(=O)NC2(CCCCCC2)C1=O`: 25.9 µM [falling, partial curve, poor fit].

Regarding `Cc1ccc(Cn2nnc3c(=O)[nH]c(C4CCN(C(=O)c5cccs5)CC4)nc32)cc1`, under setting [1], the AC50 was 3.66 µM [rising, single point]. On the same count and under the same terms, the same measure for `Cc1ccc2c(CN(C)Cc3cccc(F)c3)cc(=O)oc2c1C`: 0.562 µM [rising, partial curve]; for `Cn1c(=NC(=O)COc2ccccc2)sc2cccc(F)c21`: 0.251 µM [rising, full curve, poor fit]. Same read-out and setting: in the case of `O=C(CSc1nnnn1C1CC2C=CC1C2)Nc1ccc(C(=O)O)cc1` (configuration not stated) it was 20.6 µM [rising, partial curve, poor fit]; in that of `O=C(N/N=C/c1cn(Cc2cccc(F)c2)c2ccccc12)c1cc(O)cc(O)c1`, 4.47 µM [falling, full curve]. Turning to `C=CCn1c(SCc2c(C)noc2C)nc2ccccc2c1=O`, the half-maximal activity concentration (AC50) runs as follows: under setting [1], 20.6 µM [rising, single point]; under setting [2], 18.4 µM [falling, partial curve]. As for `Cc1cccc(NC(=O)[C@H](C)NC(=O)[C@@H]2Cc3ccccc3CN2C(=O)OC(C)(C)C)c1`, under setting [1], the half-maximal activity concentration (AC50) was 35.5 µM [falling, single point]. As for `CCC1N=C(SC)NC(C)=C1C(=O)c1ccccc1` (configuration not stated), the AC50 under setting [1] was 0.316 µM [rising, full curve, poor fit]. Same read-out and setting: in the case of `CCCCN(C)C(=O)c1cn(CC)c2ccc(S(=O)(=O)N(C)C)cc2c1=O` it was 6.51 µM [rising, single point]. On to `Cc1cc(N/C=C\C(=O)c2ccc(Cl)c(Cl)c2)no1`, for which, under setting [1], the AC50 is 3.98 µM [rising, full curve].

As to `Nc1ccc(-c2nc3ccccc3o2)cc1`, the AC50 under setting [1] is 11.2 µM [falling, single point]. On the same count and under the same terms, the same measure for `CCOC(=O)C1=C(C(F)(F)F)Nc2ncnn2C1c1cc(OC)ccc1OC` (configuration not stated): 14.6 µM [rising, partial curve, poor fit]; for `N#Cc1ccc(C(=O)Nn2cnnc2)cc1`: 3.55 µM [rising, partial curve, poor fit]; for `COC(=O)c1ccc(C2C=C(c3ccc(Cl)cc3)Nc3nc4ccccc4n32)cc1` (configuration not stated): 7.08 µM [falling, full curve].
